{"source": "patent US20230233615A1", "about": "“PHARMACEUTICAL COMPOSITION FOR TREATING ALZHEIMER'S DISEASE” (Gwo Xi Stem Cell Applied Technology Co., Ltd., priority 2022, published 2023)", "key": {"NO": {"test_system": "NO", "experiment": "Effects of EVs on neuroinflammation, NO in primary mixed glial cells", "type": "cell-based, C57BL/6 mice", "conditions": "LPS 100 ng/ml, co-cultured 24 hours, dexamethasone 10 ng/ml"}, "TNF-α": {"test_system": "TNF-α", "experiment": "Effects of EVs on neuroinflammation, TNF-α in primary mixed glial cells", "type": "cell-based, C57BL/6 mice", "conditions": "LPS 100 ng/ml, co-cultured 24 hours, dexamethasone 10 ng/ml"}}, "note": "At least one structure is not confirmed: it was looked up by name or label, or the drawing left a doubt."}
{"smiles": "C[C@@H]1C[C@H]2[C@@H]3CCC4=CC(=O)C=C[C@]4(C)[C@@]3(F)[C@@H](O)C[C@]2(C)[C@@]1(O)C(=O)CO", "note": "[dexamethasone]", "values": [{"measurement": "level of NO", "setting": "NO", "value": "reduced"}, {"measurement": "level of TNF-α", "setting": "TNF-α", "value": "reduced"}]}
